Assay: CT attenuation / image contrast in Hounsfield Units

Structure (SMILES): [Xe] [xenon]
- image contrast (2 atm oily solvent composition injected and diluted 10:1 by blood): about 60 HU
- image contrast (xenon in an oily solvent at a pressure of 2 atm, 90 kVp): about 600 HU

From patent publication US11576985B2, “Contrast imaging agent with dissolved gas-evolving fluid” (BAYER HEALTHCARE LLC, priority 2015, dated 2023)
